Laboratory results taken from PubChem BioAssay AID1347076 (National Center for Advancing Translational Sciences (NCATS), 2019).
Values joined by “and” are separate entries in the source; they are usually repeats but may differ in a detail not shown here. Equal entries are not always repeated. Among all 400,000 compounds or so, about 13,000 (3.2%) were called active. Inconclusive results, whose numbers are uncertain, are shown with a selection of clear calls. Calls come from the whole dose curve; as a rule, active = well fitted cell-killing curve with a large enough effect; inconclusive = small, poorly fitted or top-dose-only effect, or effect the other way; inactive = flat fitted curve, though single readings scatter. A potency beside an inconclusive call is a rough fit, not a confirmed value.

Assay: qHTS assay for MDR1-selective chemotherapeutics: Primary screen using the drug-selected MDR subline cells KB-V1; note: nearly all actives have a fitted effect of over 60% in size
Conditions: KB-V1 MDR cells viability, CellTiter-Glo, 72 h; series mostly up to 46.1 µM
Procedure, shortened: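 Cells of the MDR subline KB-V1 are plated, dosed with compound at multiple concentrations, and incubated 72 h at 37 degrees C; CellTiter-Glo is then added and luminescence read after 10 min.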
Potency is the fitted concentration of half-maximal effect.

SMILES	Potency
CC(C)NC(=O)NC(=O)COc1cccc2c1OC(C)(C)C2	inconclusive: 18.4 µM [cytotoxic, partial curve, poor fit]
Cc1c(C(=O)N2CCN(c3ccccn3)CC2)cccc1[N+](=O)[O-]	inconclusive: 29.1 µM [cytotoxic, single point]
CCCC(=O)N(Cc1cc(=O)[nH]c2ccccc12)c1ccccc1C	inactive
O=C(NC(=S)N1CCOCC1)c1cn(-c2ccccc2)nc1-c1ccccc1	active: 5.8 µM
O=C(CCC1CCCCC1)NCCS(=O)(=O)N1CCN(c2ccccc2F)CC1	inconclusive: 20.6 µM [cytotoxic, single point]
COc1ccccc1NC(=O)/C(C#N)=C/c1c(C)nn(-c2ccc(F)cc2)c1Cl	inactive
CCCCNC(=O)CCn1c(=O)c2ccccc2n(Cc2ccc(F)cc2)c1=O	inconclusive: 9.2 µM [cytotoxic, partial curve, poor fit]
COc1ccc(C(CCNCc2ccc(OC)c(OC)c2)c2ccc(F)cc2)cc1 (stereo unspecified)	inactive
CC(C)CC(COCc1ccc(Cl)cc1)N1CCN(C(=O)c2ccc(C(F)(F)F)cc2)CCC1=O (stereo unspecified)	active: 20.6 µM
COc1ccc(NC(=S)N(CCCN2CCC(C)CC2)Cc2cccs2)cc1Cl	inconclusive: 3.66 µM [cytotoxic, partial curve]
O=C(Cc1ccccc1)NC1CC(=O)N(c2ccc3c(c2)OCCO3)C1 (stereo unspecified)	inactive
Cc1onc(-c2ccccc2)c1CNS(=O)(=O)c1ccccc1[N+](=O)[O-]	inactive
COC(=O)c1sc(NC(=S)NC(=O)c2ccccc2C)nc1C	inconclusive: 29.1 µM [cytotoxic, single point]
O=C(NCCc1cccs1)c1ccc(Cl)c(Cl)c1	inconclusive: 20.6 µM [cytotoxic, single point]
COc1ccc(-n2cnnc2SCc2cnc(-c3ccccc3)s2)cc1	active: 16.4 µM
COc1cccc(CN2CCNC(=O)C2CC(=O)N(C)CCC2CCOCC2)c1 (stereo unspecified)	inconclusive: 14.6 µM [rising, partial curve, poor fit]
Cn1c(SCC(=O)N2CCCCCC2)nc2c(c1=O)SCC2	inactive
O=C(OCc1ccccc1F)c1ccc(-c2nnn(Cc3ccccc3)n2)cc1	inconclusive: 23.1 µM [rising, single point]
C#CCN(C[C@@H]1[C@@H](OC(=O)NCc2ccco2)[C@@H](OC(=O)NCc2ccco2)CN(C(=O)OC(C)C)N1C(=O)OC(C)C)S(=O)(=O)c1ccc(C)cc1	inconclusive: 16.4 µM [cytotoxic, single point]
CCC(C(=O)NCc1ccc(F)cc1)N(Cc1ccco1)C(=O)c1snc(C(N)=O)c1N (stereo unspecified)	inconclusive: 5.8 µM [cytotoxic, partial curve]
Cc1ccc(SCC(=O)OC(C)C(=O)Nc2ccc(S(N)(=O)=O)cc2)cc1C (stereo unspecified)	inconclusive: 23.1 µM [rising, single point]
COc1ccccc1N(CC(=O)NCCSCc1cccc(C)c1)S(=O)(=O)c1ccccc1	inconclusive: 6.51 µM [cytotoxic, partial curve]
C/C(=N\Nc1ccccc1)c1cccs1	inconclusive: 13 µM [rising, partial curve]
COc1ccc(CCN(C(=O)C(F)(F)F)C(C(=O)NC2CCCC2)c2cccs2)cc1OC (stereo unspecified)	active: 9.2 µM

Rewritten comma-delimited: three of the compounds above
SMILES,Potency
Cc1c(C(=O)N2CCN(c3ccccn3)CC2)cccc1[N+](=O)[O-],"inconclusive: 29.1 µM [cytotoxic, single point]"
O=C(CCC1CCCCC1)NCCS(=O)(=O)N1CCN(c2ccccc2F)CC1,"inconclusive: 20.6 µM [cytotoxic, single point]"
Cc1ccc(SCC(=O)OC(C)C(=O)Nc2ccc(S(N)(=O)=O)cc2)cc1C (stereo unspecified),"inconclusive: 23.1 µM [rising, single point]"

Further structures.

SMILES	Potency
O=C(NCc1ccccc1)c1cc(C2CCCCN2C(=O)OCCF)on1 (stereo unspecified)	inactive
COc1ccc(C(=O)NCCS(=O)(=O)N2CCOCC2)cc1	inconclusive: 29.1 µM [rising, single point]
CCCOC(=O)N[C@@H]1C(=O)N2C(C(=O)OCCC)=C(C)CS[C@H]12	inconclusive: 23.1 µM [cytotoxic, single point] and inconclusive: 651 nM [cytotoxic, full curve, poor fit]
CC(=O)N1CC(C)Oc2ccc(S(=O)(=O)NC(CC(=O)O)c3ccccc3C)cc21 (stereo unspecified)	inconclusive: 11.6 µM [rising, partial curve, poor fit]
CCN1CCN(C(=O)N(c2ccccc2)c2ccccc2)CC1	inconclusive: 32.6 µM [cytotoxic, single point]
Cc1cc(C)cc(NC(=O)CSCc2cc(=O)c3cc(Cl)ccc3[nH]2)c1	inactive
COc1cccc(C(=O)NCCS(=O)(=O)N2CC(C)CC(C)C2)c1 (stereo unspecified)	inconclusive: 18.4 µM [cytotoxic, partial curve, poor fit]
OCCC1CN(Cc2cc3c(cc2Cl)OCO3)CCN1Cc1ccccc1 (stereo unspecified)	inactive
CCc1nnc(NCn2nc(C)cc2C)s1	inconclusive: 20.6 µM [rising, partial curve, poor fit]
O=c1oc2cc(O)ccc2c2ccccc12	inconclusive: 29.1 µM [cytotoxic, single point]
Cc1ccc(-c2c[n+](Cc3ccc(Cl)c(Cl)c3)c3n2CCC3)cc1	inactive
Cc1c(-c2nc(-c3ccc4c(c3)[nH]c(=O)n4C)no2)cccc1[N+](=O)[O-]	inactive
O=C(c1ccc(Cl)c([N+](=O)[O-])c1)N(c1ccccn1)c1ccccn1	inconclusive: 29.1 µM [cytotoxic, single point]
O=C(c1cnc(N2CCOCC2)c2ccccc12)N1CCN(c2ccc(F)cc2)CC1	inconclusive: 29.1 µM [cytotoxic, single point]
CCC(=O)Nc1nnc(SCC(=O)c2ccc3c(c2)Cc2ccccc2-3)s1	inconclusive: 29.1 µM [rising, single point]
Cn1cncc1C#Cc1c(C=O)n(C)c2ccccc12	inactive
CC1(c2ccc3c(c2)OCCCO3)NC(=O)N(CC(=O)NCCc2ccccc2)C1=O (stereo unspecified)	inconclusive: 29.1 µM [cytotoxic, single point]
CC(=O)c1cccc(-c2cnc3c(NC=O)cc(-c4ccccc4)cn23)c1	inconclusive: 18.4 µM [cytotoxic, single point]
Nc1cccc(NC(=O)c2ccco2)c1	inconclusive: 23.1 µM [rising, partial curve, poor fit]
CCOC(=O)C1(Cc2ccccc2Cl)CCN(S(=O)(=O)N(C)C)CC1	inconclusive: 6.51 µM [cytotoxic, full curve, poor fit]
CCN(CC)C(=O)C(=O)Nc1ccc(F)c(Cl)c1	inconclusive: 11.6 µM [rising, partial curve, poor fit]
Clc1ccc2nnc(Cl)n2n1	inactive
c1ccc2c(-c3[nH]ncc3CNCCCn3ncc4ccccc43)cccc2c1	inconclusive: 23.1 µM [cytotoxic, single point]
Nc1nc(CN2CCN(c3ccc(F)cc3)CC2)nc(N2CCCc3ccccc32)n1	inconclusive: 29.1 µM [cytotoxic, single point]

SMILES	Potency
Nc1nc(Br)c2ccccc2c1-c1ccccc1	inactive
CNC(=S)NNC(=O)CSCc1c(Cl)cccc1Cl	inactive
CCC(=O)N1CCN(c2ccc(NC(=O)COc3ccc(C)cc3C)cc2)CC1	inactive
C=CCn1c(SCC(=O)Nc2cc(C)ccc2C)nnc1-c1cnccn1	inconclusive: 16.4 µM [cytotoxic, partial curve, poor fit]
S=c1[nH]c2ccc(Cl)cc2[nH]1	active: 18.4 µM
Cc1cc(C)nc(Nc2n[nH]c(COc3cccc4ccccc34)n2)n1	inconclusive: 3.26 µM [cytotoxic, partial curve, poor fit]
Cc1cc([N+](=O)[O-])ccc1NC(=O)Nc1ccc(F)cc1F	active: 14.6 µM
O=C1CC(c2ccccc2)C(C(=O)Nc2ccccc2F)N1 (stereo unspecified)	inactive
COc1ccc2c(c1)C(=O)CC(c1ccccc1F)O2 (stereo unspecified)	inactive
COc1ccc(Cc2nnc(Nc3c(C)cccc3C)o2)cc1OC	inactive
Cc1cc2c(cc1S(=O)(=O)N1CCc3ccccc31)NC(=O)CO2	inconclusive: 23.1 µM [cytotoxic, single point]
CCOC(=O)c1nc2sc3c(c2c(=O)n1C(C)C(=O)OCC)CCCC3 (stereo unspecified)	inactive
CC(C)Cn1c(N)c(C(=O)COC(=O)c2ccc(Cl)cc2)c(=O)n(C)c1=O	inactive
Cc1cccc(-n2c3nc(=O)[nH]c(=O)c-3cc3cc([N+](=O)[O-])ccc32)c1	active: 16.4 µM
Cc1ccc(-c2nc3ccccc3[nH]2)cc1NC(=S)NC(=O)c1ccccc1Br	inconclusive: 29.1 µM [cytotoxic, single point]
O=[N+]([O-])c1ccc(COc2cccc(CN3CCCCC3)c2)cc1	inactive
O=C(Nc1ccc(F)cc1F)c1ccc(-c2ccccc2)s1	inconclusive: 11.6 µM [rising, single point]
CCOc1cc(-c2nnc(NC(=O)c3ccco3)o2)cc(OCC)c1OCC	inconclusive: 10.3 µM [cytotoxic, partial curve, poor fit]
CCOc1ccccc1C(=O)Nc1cc2c(cc1N1CCCC1)n(CC)c(=O)n2CC	inconclusive: 29.1 µM [cytotoxic, single point]
CCCCn1c(N)c(N(Cc2ccccc2OC)C(=O)C(C)Oc2ccc(F)cc2)c(=O)[nH]c1=O (stereo unspecified)	inactive
O=C(NCc1ccccc1)c1noc2c1CCCC2	inconclusive: 29.1 µM [cytotoxic, single point]
CCOc1cc(N2CCOCC2)c(OCC)cc1NC(=O)CN1C(=O)NC(C)(c2ccc(OC)cc2)C1=O (stereo unspecified)	inconclusive: 29.1 µM [rising, single point]
COC(=O)N/N=C/c1ccccc1	inconclusive: 29.1 µM [rising, single point]

A second format for 4 compounds above.
Cc1cc([N+](=O)[O-])ccc1NC(=O)Nc1ccc(F)cc1F
  Potency: active: 14.6 µM
O=C1CC(c2ccccc2)C(C(=O)Nc2ccccc2F)N1 (stereo unspecified)
  Potency: inactive
COc1ccc2c(c1)C(=O)CC(c1ccccc1F)O2 (stereo unspecified)
  Potency: inactive
COc1ccc(Cc2nnc(Nc3c(C)cccc3C)o2)cc1OC
  Potency: inactive
